Data: the supplement of paper PMC10331698
± gives the standard deviation of the averaged measurements. Most entries show no effect beyond the scatter of the controls.

Tests used:
Test in all cases: level (log10 ratio to DMSO vehicle control); higher = higher biomarker level / cell amount than vehicle control
Pentafluoropropionamide = compound: NC(=O)C(F)(F)C(F)(F)F [Pentafluoropropionamide]; settings: 2200 nM; in DMSO
Method: (§1)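 BioMAP Diversity Plus panel of 12 human primary cell co-culture systems (3C, 4H, LPS, SAg, BT, BF4T, BE3C, CASM3C, HDF3CGF, KF3CT, MyoF, Mphg). Compounds were added 1 h before stimulation and left for 24 h (MyoF 48 h; BT 72 h for soluble read-outs or 6 d for IgG). Biomarkers were read by ELISA, cytotoxicity by SRB, PBMC viability and proliferation by Alamar Blue. Each well value was divided by the mean of 8 DMSO control wells on the same plate and log10 transformed; duplicate blinded samples were tested at 4 concentrations.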

[1] = compound: CO[Si](C)(CCC(F)(F)C(F)(F)C(F)(F)C(F)(F)C(F)(F)C(F)(F)F)OC [Dimethoxymethyl((perfluorohexyl)ethyl)silane]; settings: in DMSO
Method: as §1

[2] = compound: O=S(=O)(OCC(F)(F)F)C(F)(F)C(F)(F)C(F)(F)C(F)(F)F [2,2,2-Trifluoroethyl perfluorobutanesulfonate]; settings: 2200 nM; in DMSO
Method: as §1

[3] = compound: O=S(=O)(F)C(F)(F)C(F)(F)C(F)(F)C(F)(F)C(F)(F)C(F)(F)C(F)(F)C(F)(F)F [Perfluorooctanesulfonyl fluoride]; settings: 2200 nM; in DMSO
Method: as §1

[4] = compound: C=CC(F)(F)C(F)(F)C(F)(F)C(F)(F)C(F)(F)C(F)(F)C(F)(F)C(F)(F)C=C [1,8-Divinylperfluorooctane]; settings: in DMSO
Method: as §1

Heptafluorobutyl iodide = compound: FC(F)(F)C(F)(F)C(F)(F)CI [Heptafluorobutyl iodide]; settings: 2200 nM; in DMSO
Method: as §1

[5] = compound: O=P(O)(O)CCC(F)(F)C(F)(F)C(F)(F)C(F)(F)C(F)(F)C(F)(F)F [2-(Perfluorohexyl)ethylphosphonic acid]; settings: 2200 nM; in DMSO
Method: as §1

[6] = compound: FC(F)(F)C(F)(F)C(F)(F)CC1CO1 [1H,1H-Heptafluorobutyl epoxide]; settings: 2200 nM; in DMSO
Method: as §1

[7] = compound: O=S(=O)(O)C(F)(F)C(F)(F)C(F)(F)C(F)(F)C(F)(F)C(F)(F)C(F)(F)C(F)(F)F [Perfluorooctanesulfonic acid]; settings: 2200 nM; in DMSO
Method: as §1

[8] = compound: O=S(=O)(O)C(F)(F)C(F)(F)C(F)(F)C(F)(F)C(F)(F)C(F)(F)C(F)(F)C(F)(F)F [Potassium perfluorooctanesulfonate]; settings: 2200 nM; in DMSO
Method: as §1

[9] = compound: COC(=O)C(F)(F)C(F)(F)OC(F)(C(F)(F)F)C(F)(F)OC(F)=C(F)F [Methyl perfluoro(3-(1-ethenyloxypropan-2-yloxy)propanoate)]; settings: in DMSO
Method: as §1

[10] = compound: C=C(C)C(=O)OCC(F)(F)C(F)(F)C(F)(F)C(F)(F)C(F)(F)C(F)(F)C(F)(F)F; settings: in DMSO
Method: as §1

[11] = compound: NC(=O)C(F)(F)C(F)(F)C(F)(F)C(F)F; settings: in DMSO
Method: as §1

[12] = compound: O=C(O)C(F)(F)C(F)(F)C(F)F [4H-Perfluorobutanoic acid]; settings: in DMSO
Method: as §1

[13] = compound: OCC(F)(F)C(F)(F)C(F)(F)C(F)(F)C(F)(F)C(F)F [1H,1H,7H-Dodecafluoro-1-heptanol]; settings: 2200 nM; in DMSO
Method: as §1

[14] = compound: OCCCCC(F)(F)C(F)(F)C(F)(F)C(F)(F)F [4:4 Fluorotelomer alcohol]; settings: 2200 nM; in DMSO
Method: as §1

[15] = compound: C=CC(=O)OCC(F)(F)C(F)(F)C(F)(F)C(F)(F)C(F)(F)C(F)(F)C(F)(F)F [1H,1H-Perfluorooctyl acrylate]; settings: 2200 nM; in DMSO
Method: as §1

[16] = compound: NS(=O)(=O)C(F)(F)C(F)(F)C(F)(F)C(F)(F)C(F)(F)C(F)(F)C(F)(F)C(F)(F)F [Perfluorooctanesulfonamide]; settings: in DMSO
Method: as §1

| Test System | level (log10) (Pentafluoropropionamide) | level (log10) ([1]; 740 nM) | level (log10) ([1]; 2200 nM) | level (log10) [2] | level (log10) [3] | level (log10) ([4]; 740 nM) | level (log10) ([4]; 2200 nM) | level (log10) (Heptafluorobutyl iodide) | level (log10) [5] | level (log10) [6] | level (log10) [7] | level (log10) [8] | level (log10) ([9]; 740 nM) | level (log10) ([9]; 2200 nM) | level (log10) ([10]; 740 nM) | level (log10) ([10]; 2200 nM) | level (log10) ([11]; 2200 nM) | level (log10) ([11]; 6700 nM) | level (log10) ([11]; 20000 nM) | level (log10) ([11]; 60000 nM) | level (log10) ([12]; 2200 nM) | level (log10) ([12]; 6700 nM) | level (log10) ([12]; 20000 nM) | level (log10) ([12]; 60000 nM) | level (log10) [13] | level (log10) [14] | level (log10) [15] | level (log10) ([16]; 2200 nM) | level (log10) ([16]; 6700 nM) | level (log10) ([16]; 20000 nM) |
| --- | --- | --- | --- | --- | --- | --- | --- | --- | --- | --- | --- | --- | --- | --- | --- | --- | --- | --- | --- | --- | --- | --- | --- | --- | --- | --- | --- | --- | --- | --- |
| LPS:IL-1alpha | 0.0145 ± 0.0092 | -0.007 ± 0.0042 | 0.017 ± 0.034 | -0.033 ± 0.086 | -0.0025 ± 0.023 | 0.0315 ± 0.028 | 0.025 ± 0.062 | 0.0395 ± 0.064 | 0.007 ± 0.024 | -0.007 ± 0.028 | 0.051 ± 0.13 | 0.0035 ± 0.035 | -0.0275 ± 0.063 | 0.0285 ± 0.019 | 0.021 ± 0.0071 | 0.0175 ± 0.026 | 0.0065 ± 0.044 | 0.009 ± 0.011 | -0.0045 ± 0.015 | 0.0015 ± 0.06 | -0.0425 ± 0.0035 | -0.038 ± 0.0071 | -0.02 ± 0.0085 | -0.0065 ± 0.023 | 0.018 ± 0.042 | 0.0235 ± 0.037 | 0.004 ± 0.0099 | -0.0065 ± 0.021 | -0.0195 ± 0.025 | -0.013 ± 0.0071 |
| BE3C:IL-1alpha | 0.0225 ± 0.032 | 0.0215 ± 0.053 | 0.0095 ± 0.036 | -0.009 ± 0.02 | 0.002 ± 0.0028 | 0.029 ± 0.059 | 0.0035 ± 0.029 | -0.006 ± 0.02 | 0.005 ± 0.033 | 0.028 ± 0.013 | 0.011 ± 0.042 | 0.013 ± 0.016 | 0.005 ± 0.055 | -0.012 ± 0.016 | 0.0205 ± 0.0021 | 0.012 ± 0.021 | 0.0495 ± 0.049 | 0.0235 ± 0.016 | -0.008 ± 0.0085 | 0.015 ± 0.065 | -0.022 ± 0.0042 | -0.0325 ± 0.0064 | -0.018 ± 0.025 | -0.0045 ± 0.079 | 0.0145 ± 0.013 | 0.037 ± 0.04 | -0.0085 ± 0.0078 | 0.032 ± 0.033 | -0.005 ± 0.023 | -0.066 ± 0.017 |
| lMphg:CD69 | 0.018 ± 0.027 | -0.0335 ± 0.049 | -0.012 ± 0.047 | -0.026 ± 0.018 | -0.0265 ± 0.036 | 0.0255 ± 0.016 | -0.011 ± 0.028 | -0.039 ± 0.014 | -0.008 ± 0.075 | -0.004 ± 0.045 | 0.009 ± 0.033 | 0.002 ± 0.079 | 0.025 ± 0.0057 | -0.042 ± 0.042 | 0.0065 ± 0.023 | -0.0185 ± 0.018 | 0.0095 ± 0.042 | 0.0265 ± 0.018 | -0.015 ± 0.0071 | -0.0115 ± 0.0078 | 0.02 ± 0.03 | 0.0185 ± 0.032 | -0.0175 ± 0.0021 | 0.0095 ± 0.019 | 0.0165 ± 0.086 | -0.0005 ± 0.036 | -0.009 ± 0.021 | -0.022 ± 0.037 | -0.0435 ± 0.052 | -0.11 ± 0.037 |
| BF4T:CD90 | 0.004 ± 0.018 | -0.0135 ± 0.015 | -0.007 ± 0.0057 | -0.009 ± 0.0028 | 0.01 ± 0.0014 | -0.009 ± 0.014 | -0.0135 ± 0.0035 | 0.0015 ± 0.012 | -0.0035 ± 0.026 | -0.006 ± 0.025 | 0.003 ± 0.037 | 0.006 ± 0.024 | 0.001 ± 0.0014 | -0.0005 ± 0.0035 | -0.005 ± 0.0042 | -0.0135 ± 0.0021 | 0.0005 ± 0.0078 | -0.002 ± 0.0085 | -0.0125 ± 0.0092 | 0.001 ± 0.0028 | 0.0025 ± 0.025 | 0.0045 ± 0.0035 | 0.0095 ± 0.011 | 0.01 ± 0.028 | 0.0035 ± 0.0092 | -0.001 ± 0.03 | -0.001 ± 0.0028 | -0.001 ± 0.021 | -0.0275 ± 0.012 | -0.0585 ± 0.016 |
